The target of this assay is T1, cathepsin G (UniProt P08311).
T1 sequence (looked up): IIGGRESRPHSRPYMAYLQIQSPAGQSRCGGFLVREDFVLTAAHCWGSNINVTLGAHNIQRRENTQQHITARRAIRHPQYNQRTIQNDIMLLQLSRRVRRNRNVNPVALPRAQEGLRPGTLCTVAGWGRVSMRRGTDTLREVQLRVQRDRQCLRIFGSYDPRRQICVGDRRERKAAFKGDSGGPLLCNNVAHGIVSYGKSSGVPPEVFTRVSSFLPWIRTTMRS
The assay can be described thus: BIAcore, immobilized Phe72 mutein, monoS fractions of CHAPS-solubilized U937 membranes; identity by comparison of profiles.

These are yes or no findings as the source states them, for the method shown. Some binding calls cover weakened binding; strength is not graded here.

B1: SLPI mutein Phe 72 (other, human, UniProt P03973 26-132, looked up)
chain: SGKSFKAGVCPPKKSAQCLRYKKPECQSDWQCPGKKRCCPDTCGIKCLDPVDTPNPTRRKPGKCPVTYGQCFMLNPPNFCEMDGQCKRDLKCCMGMCGKSCVSPVKA
notes: mature; also called Phe72 mutein
For B1, the binding entry is “binds”.

Source of the values: patent US6869925 (Amgen, dated 2005).
